Test results as given in PMC4718636.

The chains behind the UniProt entries cited, without tags or fusion partners.
UniProt Q9UKV8, whole entry: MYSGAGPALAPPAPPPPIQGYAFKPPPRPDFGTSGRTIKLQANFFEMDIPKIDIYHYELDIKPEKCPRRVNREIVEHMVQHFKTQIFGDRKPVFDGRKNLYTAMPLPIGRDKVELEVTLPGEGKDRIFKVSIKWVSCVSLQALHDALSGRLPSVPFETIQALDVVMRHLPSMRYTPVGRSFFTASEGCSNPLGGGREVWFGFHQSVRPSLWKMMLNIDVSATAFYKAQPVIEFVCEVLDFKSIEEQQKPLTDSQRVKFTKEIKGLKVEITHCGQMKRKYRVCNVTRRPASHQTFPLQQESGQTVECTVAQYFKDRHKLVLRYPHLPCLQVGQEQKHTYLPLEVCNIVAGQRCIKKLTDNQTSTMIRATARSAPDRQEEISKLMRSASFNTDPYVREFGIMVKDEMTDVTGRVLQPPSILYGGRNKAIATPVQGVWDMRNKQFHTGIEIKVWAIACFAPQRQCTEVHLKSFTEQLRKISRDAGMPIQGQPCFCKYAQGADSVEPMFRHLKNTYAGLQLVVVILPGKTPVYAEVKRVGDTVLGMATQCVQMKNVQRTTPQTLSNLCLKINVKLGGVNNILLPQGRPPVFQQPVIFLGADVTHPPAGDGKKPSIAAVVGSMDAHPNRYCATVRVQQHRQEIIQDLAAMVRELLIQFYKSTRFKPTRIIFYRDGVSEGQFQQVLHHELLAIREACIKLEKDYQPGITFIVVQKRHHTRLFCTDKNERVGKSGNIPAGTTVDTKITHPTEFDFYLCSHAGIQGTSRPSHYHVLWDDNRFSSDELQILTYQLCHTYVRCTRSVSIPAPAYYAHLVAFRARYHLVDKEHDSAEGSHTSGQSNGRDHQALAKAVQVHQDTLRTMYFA

Key:
Test in all cases: stopped-flow kinetics
[1] = tested on: hAgo2-PAZ9 + hTRBP (native purification); settings: hTRBP restores three-step binding; 3' dTdT on both strands (DNA); T at position 14 of guide carries label; dsRBP-siRNA: 20 mM Tris pH 7.5, 50 mM NaCl, 1 mM EDTA, 25 C; hAgo2 stopped flow: 10 mM Tris pH 7.5, 100 mM KCl, 0.5 mM MgCl2, 25 C; recombinant protein; protein details: GST,His (pET41b); label: FAM at position 14 of guide
[2] = tested on: hAgo2-PAZ9 + hPACT (native purification); settings: hPACT restores three-step binding; 3' dTdT on both strands (DNA); T at position 14 of guide carries label; dsRBP-siRNA: 20 mM Tris pH 7.5, 50 mM NaCl, 1 mM EDTA, 25 C; hAgo2 stopped flow: 10 mM Tris pH 7.5, 100 mM KCl, 0.5 mM MgCl2, 25 C; recombinant protein; protein details: GST,His (pET41b); label: FAM at position 14 of guide
[3] = molecular target: hAgo2-PAZ9 (Homo sapiens) (UniProt Q9UKV8); settings: no dsRBP, only two phases, 3'-end binding to PAZ not detected; 3' dTdT on both strands (DNA); T at position 14 of guide carries label; dsRBP-siRNA: 20 mM Tris pH 7.5, 50 mM NaCl, 1 mM EDTA, 25 C; hAgo2 stopped flow: 10 mM Tris pH 7.5, 100 mM KCl, 0.5 mM MgCl2, 25 C; recombinant protein; protein details: GST; label: FAM at position 14 of guide

## UAGAGGUACGUGCTGAGGCTT / GCCUCAGCACGUACCUCUATT [as2b-FAM/s2b siRNA]
[1]
  binding result: binds
[2]
  binding result: binds
[3]
  binding result: binds more weakly

Construct, isoform or probe ends are uncertain for at least one entry. For part of these data: The comparison behind a weaker result is the experiment's own reference, which may not be listed here.
